Changes are numbered by the printed parent chain. The entries are a selection whose mix differs from that of the whole data set. The calls were merged from several studies; some rest on single wells. Some of the results follow.
Tests used:
Conditions in all cases: stereoisomer not certain
OR2T1 [1] = tested on: T1, OR2T1
T1 sequence (whole entry): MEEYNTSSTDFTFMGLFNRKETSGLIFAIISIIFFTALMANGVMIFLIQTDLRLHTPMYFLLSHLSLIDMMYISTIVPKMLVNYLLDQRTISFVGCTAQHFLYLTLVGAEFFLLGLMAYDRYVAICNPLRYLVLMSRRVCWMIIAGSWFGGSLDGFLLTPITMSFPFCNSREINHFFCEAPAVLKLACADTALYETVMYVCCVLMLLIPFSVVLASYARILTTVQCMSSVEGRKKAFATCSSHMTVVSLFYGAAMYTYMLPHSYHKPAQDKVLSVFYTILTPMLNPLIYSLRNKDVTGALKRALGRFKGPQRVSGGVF
Method in brief: (§1)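 Whether a receptor–molecule pair is responsive (active) rests on the original authors' judgment that its measured signal was statistically different from baseline. Pairs without that judgment are non-responsive (inactive). Sources used varied assay methods, commonly transient luciferase assays in mammalian cell lines.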

Chains of the proteins cited; added tags and fusions are not shown. Chains listed by the source or under a name are the forms on record and can include a tag or linker.
OR2T1, as listed by the source: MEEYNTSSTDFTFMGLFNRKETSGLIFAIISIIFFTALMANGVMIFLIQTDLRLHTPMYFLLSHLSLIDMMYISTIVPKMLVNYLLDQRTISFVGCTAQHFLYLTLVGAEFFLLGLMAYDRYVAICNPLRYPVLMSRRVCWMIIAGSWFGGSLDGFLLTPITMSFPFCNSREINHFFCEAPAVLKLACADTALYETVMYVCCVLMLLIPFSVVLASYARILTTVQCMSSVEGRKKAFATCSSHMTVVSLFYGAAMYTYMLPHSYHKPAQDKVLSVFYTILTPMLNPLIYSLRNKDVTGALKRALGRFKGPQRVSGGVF

OR2T2 = tested on: T2, OR2T2
T2 sequence (whole entry): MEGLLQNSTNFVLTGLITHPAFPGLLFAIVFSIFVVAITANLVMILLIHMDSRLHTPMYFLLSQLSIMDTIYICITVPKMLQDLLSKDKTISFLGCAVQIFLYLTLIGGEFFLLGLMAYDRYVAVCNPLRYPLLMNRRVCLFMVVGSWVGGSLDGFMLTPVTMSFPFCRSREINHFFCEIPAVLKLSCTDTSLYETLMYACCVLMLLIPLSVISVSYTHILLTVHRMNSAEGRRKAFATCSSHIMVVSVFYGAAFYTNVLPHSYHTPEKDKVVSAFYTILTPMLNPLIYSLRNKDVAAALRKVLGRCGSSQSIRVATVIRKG
Method in brief: as §1

OR2T3 (Homo sapiens) = target: T3, OR2T3 (Homo sapiens) (UniProt Q8NH03)
T3 sequence (whole entry): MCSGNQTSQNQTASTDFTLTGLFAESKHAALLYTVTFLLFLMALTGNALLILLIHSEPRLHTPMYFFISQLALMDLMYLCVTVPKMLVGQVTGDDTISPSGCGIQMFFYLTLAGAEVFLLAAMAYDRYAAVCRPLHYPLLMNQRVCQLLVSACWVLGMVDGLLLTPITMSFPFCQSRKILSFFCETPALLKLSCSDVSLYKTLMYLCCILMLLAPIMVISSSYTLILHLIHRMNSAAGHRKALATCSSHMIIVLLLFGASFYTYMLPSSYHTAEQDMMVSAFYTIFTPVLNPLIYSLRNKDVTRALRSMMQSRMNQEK
Method in brief: as §1

OR2T4 = tested on: T4, OR2T4
T4 sequence (whole entry): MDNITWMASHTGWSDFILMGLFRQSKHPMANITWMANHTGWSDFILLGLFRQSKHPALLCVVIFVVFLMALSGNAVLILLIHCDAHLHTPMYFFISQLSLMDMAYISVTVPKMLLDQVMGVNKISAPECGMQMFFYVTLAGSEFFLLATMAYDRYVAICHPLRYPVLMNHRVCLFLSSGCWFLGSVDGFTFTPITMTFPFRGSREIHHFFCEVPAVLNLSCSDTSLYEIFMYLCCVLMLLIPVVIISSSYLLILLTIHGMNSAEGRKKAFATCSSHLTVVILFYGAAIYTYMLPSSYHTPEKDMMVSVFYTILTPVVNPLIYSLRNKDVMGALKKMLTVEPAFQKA
Method in brief: as §1

OR2T4 (Homo sapiens) = target: T5, OR2T4 (Homo sapiens) (UniProt Q8NH00)
T5 sequence (whole entry): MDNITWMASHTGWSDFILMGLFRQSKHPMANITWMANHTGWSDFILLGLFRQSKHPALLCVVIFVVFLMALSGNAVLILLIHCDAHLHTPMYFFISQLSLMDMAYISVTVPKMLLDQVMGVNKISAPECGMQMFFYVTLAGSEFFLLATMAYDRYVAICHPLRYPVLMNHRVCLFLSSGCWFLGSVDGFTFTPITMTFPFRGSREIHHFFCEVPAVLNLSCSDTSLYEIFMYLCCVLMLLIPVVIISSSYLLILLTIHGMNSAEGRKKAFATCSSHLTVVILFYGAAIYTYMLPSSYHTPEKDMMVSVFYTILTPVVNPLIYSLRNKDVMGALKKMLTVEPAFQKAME
Method in brief: as §1

OR2T34 (Homo sapiens) = target: T6, OR2T34 (Homo sapiens) (UniProt Q8NGX1)
T6 sequence (whole entry): T3 sequence (whole entry) with Y109H, T202M, M204T, A214T, H239R, P267R
Method in brief: as §1

OR2T1 [2] = tested on: OR2T1; remark: listed apart in the source
Method in brief: as §1

OR2T1 [3] = tested on: OR2T1; remark: listed apart in the source
Method in brief: as §1
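Note: active if original authors judged signal statistically different from baseline.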

| SMILES | odorant receptor agonist call (OR2T1 [1]) | odorant receptor agonist call (OR2T2) | odorant receptor agonist call (OR2T3 (Homo sapiens)) | odorant receptor agonist call (OR2T4) | odorant receptor agonist call (OR2T4 (Homo sapiens)) | odorant receptor agonist call (OR2T34 (Homo sapiens)) | odorant receptor agonist call (OR2T1 [2]) | odorant receptor agonist call (OR2T1 [3]) |
| --- | --- | --- | --- | --- | --- | --- | --- | --- |
| COc1ccccc1O | inactive | inactive | inactive | inactive | – | – | – | – |
| CCCCCC(=O)O | inactive | inactive | inactive | inactive | inactive | – | – | – |
| COc1cc(C=O)ccc1O | inactive | inactive | inactive | inactive | inactive | – | – | – |
| CCCCCCCCCCC=O | inactive | inactive | inactive | inactive | active | – | – | – |
| CC12CCC(CC1)C(C)(C)O2 | inactive | inactive | inactive | inactive | – | – | – | – |
| CCCCO | inactive | inactive | inactive | inactive | inactive | – | – | – |
| C=CC(C)(O)CCC=C(C)C (centres undefined) | inactive | inactive | inactive | inactive | inactive | inactive | – | – |
| CC(C)(C)c1ccc(CCC=O)cc1 | inactive | inactive | inactive | inactive | – | – | – | – |
| CC12C=CCC1C1CCC3=CC(=O)CCC3(C)C1CC2 (centres undefined) | inactive | inactive | inactive | inactive | – | – | – | – |
| CC(=O)OC(C)(C)C1CC=C(C)CC1 (centres undefined) | inactive | inactive | inactive | inactive | – | inactive | – | – |
| CC(=O)OCC=C(C)CCC=C(C)C | inactive | inactive | inactive | inactive | – | – | – | – |
| CCC=CCCO | inactive | inactive | inactive | inactive | – | – | – | – |
| CC(C)C=O | inactive | inactive | inactive | inactive | – | – | – | – |
| C=CCc1ccc(OC(C)=O)c(OC)c1 | inactive | active | inactive | inactive | – | inactive | – | – |
| CCC1(O)C2(C)CCC(C2)C1(C)C (centres undefined) | inactive | inactive | active | inactive | – | – | – | – |
| CCCC(=O)O | active | inactive | inactive | inactive | inactive | – | active | active |
| CC(=O)C(C)=O | inactive | inactive | inactive | inactive | – | – | – | – |

Two consecutive compounds from above:

| SMILES | odorant receptor agonist call (OR2T1 [1]) | odorant receptor agonist call (OR2T2) | odorant receptor agonist call (OR2T3 (Homo sapiens)) | odorant receptor agonist call (OR2T4) | odorant receptor agonist call (OR2T4 (Homo sapiens)) | odorant receptor agonist call (OR2T34 (Homo sapiens)) | odorant receptor agonist call (OR2T1 [2]) | odorant receptor agonist call (OR2T1 [3]) |
| --- | --- | --- | --- | --- | --- | --- | --- | --- |
| COc1cc(C=O)ccc1O | inactive | inactive | inactive | inactive | inactive | – | – | – |
| CCCCCCCCCCC=O | inactive | inactive | inactive | inactive | active | – | – | – |

From the M2OR odorant receptor database
